{
  "source": "paper PMC12040169",
  "about": "(PLOS Biology, 2025)",
  "note": "The other results are listed elsewhere or left out.",
  "data": [
    {"system": "T1, CTL2-GFP (C. trachomatis L2/434/Bu, GFP-expressing)", "T1 construct": "L2/434/Bu, GFP-expressing", "parameters": "species or system HeLa; Intracellular C. trachomatis growth in HeLa cells, bulk GFP fluorescence relative to DMSO", "conditions": "bulk GFP, single well; 28.5 h, 10 µM; inhibitor", "units": {"% of control remaining": "%"}, "values": [
      {"smiles": "CC1CCC(N(Cc2nnc(C3CCC3)n2C)CC2CCCO2)CC1", "note": "(stereo not shown) [CBK305540]", "% of control remaining": 137.491},
      {"smiles": "NS(=O)(=O)c1ccc(CCNC(=O)c2cc(Br)cnc2N2CCOCC2)cc1", "note": "[CBK076225]", "% of control remaining": 144.497},
      {"smiles": "COc1ccc(/C=C(/NC(=O)c2cccc(Cl)c2)C(=O)Nc2ccccc2)cc1", "note": "[CBK263342]", "% of control remaining": 105.714},
      {"smiles": "Cc1nccn1CCC1CCN(C(=O)CCCn2ccnc2)CC1", "note": "[CBK281988]", "% of control remaining": 141.788},
      {"smiles": "Cc1nc2c(OCc3ccc(C#N)cc3)cccn2c1N(C)Cc1cccs1", "note": "[CBK147336]", "% of control remaining": 164.433},
      {"smiles": "Nc1ncc(-c2cc(C(F)(F)F)cc(C(F)(F)F)c2)nc1NCc1ccco1", "note": "[CBK063689]", "% of control remaining": 206.56},
      {"smiles": "COCCCn1c(=O)[nH]c2ncc(-c3cccc(C(=O)NCCO)c3)nc21", "note": "[CBK065042]", "% of control remaining": 113.868},
      {"smiles": "CCn1cc(C(=O)N2CCC(C(=O)OC)CC2)c(=O)c2ccc(C)nc21", "note": "[CBK305848]", "% of control remaining": 107.245},
      {"smiles": "O=C(NC1CCS(=O)(=O)C1)c1c[nH]c2ccccc2c1=O", "note": "(stereo not shown) [CBK304295]", "% of control remaining": 128.174},
      {"smiles": "CCc1nnc(SCc2cccc(C(=O)O)c2)o1", "note": "[CBK286993]", "% of control remaining": 118.582},
      {"smiles": "Cc1cc(Cl)c(S(=O)(=O)Nc2cccc(Br)c2)cc1OCC(N)=O", "note": "[CBK266535]", "% of control remaining": 148.201},
      {"smiles": "COc1nc2ccn(CCC3CCOC3)c(=O)c2cc1C#N", "note": "(stereo not shown) [CBK307343]", "% of control remaining": 124.417},
      {"smiles": "COc1ccc(C(C)C)cc1-c1nccnc1NCc1ccc(S(C)(=O)=O)cc1", "note": "[CBK036903]", "% of control remaining": 135.221},
      {"smiles": "COCC(=O)NCC1Cc2cc(F)cc(-c3ccc(C(C)=O)s3)c2O1", "note": "(stereo not shown) [CBK307310]", "% of control remaining": 122.183},
      {"smiles": "c1ccc2c(c1)CCC(Oc1cncc(N3CCNCC3)n1)C2", "note": "(stereo not shown) [CBK172295G]", "% of control remaining": 111.247},
      {"smiles": "Cc1ccc2oc(C(=O)N3CCC(Oc4cccnc4)CC3)cc2c1", "note": "[CBK281498]", "% of control remaining": 99.209},
      {"smiles": "CC12CCC(=O)N1CCCN2", "note": "(stereo not shown) [CBK067102T]", "% of control remaining": 147.277},
      {"smiles": "Cc1cc(C)nc(SCc2c(C)c(C)c(CSc3nc(C)cc(C)n3)c(C)c2C)n1", "note": "[CBK262070]", "% of control remaining": 102.798},
      {"smiles": "OCCCN1CCC(Oc2cncc(OCc3cccnc3)n2)C1", "note": "(stereo not shown) [CBK084465]", "% of control remaining": 120.065},
      {"smiles": "O=C(NC(N1CCCCC1)C(Cl)(Cl)Cl)NC(N1CCCCC1)C(Cl)(Cl)Cl", "note": "(stereo not shown) [CBK261020]", "% of control remaining": 115.329},
      {"smiles": "Cc1nc(N)nc(NCC2CCN(C3CC3)C2)c1Cl", "note": "(stereo not shown) [CBK306575]", "% of control remaining": 144.849},
      {"smiles": "Cc1ccccc1OCc1nnc(SCc2c(Cl)cccc2[N+](=O)[O-])n1C", "note": "[CBK265846]", "% of control remaining": 176.011}
    ]}
  ]
}
